Results deposited as PubChem BioAssay AID1259254 (NCATS, 2017)
Test: 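Gene knock-downs that lead to re-replication, shown by excess G2 DNA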 (primary screen). System: human HCT116 colorectal cancer cells. Knock-down reagent: single siRNA against human genes. Duration: 3 days. Detection: 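Nuclei stained with Hoechst and imaged; cell-cycle phase assigned by DNA content; G2 share scaled per plate, non-targeting siRNA 0%, GMNN siRNA 100%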. Scale: G2 robust z-score and G2 cells, % of GMNN control: higher = more G2 cells, more excess DNA replication; raw share of cells in G2: higher = larger share of cells with G2 DNA content. Hit rule: 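Active siRNAs have a G2 robust z of 5 or more median absolute deviations over the median, which in these data means about 38% or higher of GMNN control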.
In all, the deposit lists about 59,000 reagents; shown is a part drawn at random. About 1,550 of them (2.6%) count as active. 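G2 share is only a proxy for re-replication; each gene was hit by three separate siRNAs, and active genes were retested.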 The raw values are shown without normalisation. A number with no mark means an inactive call. Reagents against one gene are numbered here. No sequences are given here. Not given: the amount of reagent.

no.	gene symbol	reagent no.	G2 robust z-score	G2 cells, % of GMNN control	raw share of cells in G2 (%)
1	RHAG	1	0.566	6.95	7.37
2	RHAG	2	-0.24	1.28	5.17
3	RHAG	3	1.27	11.9	8.1
4	SLC35F4	1	4.79	36.7	16.6
5	SLC35F4	2	-0.463	-0.288	3.13
6	SLC35F4	3	0.185	4.27	5.91
7	SGO1	1	5.9 (active)	44.4	18.7
8	SGO1	2	2.61	21.3	9.49
9	SGO1	3	8.2 (active)	60.6	24.2
10	MTMR10	1	-0.83	-2.87	3.86
11	MTMR10	2	0.702	7.91	6.68
12	MTMR10	3	1.26	11.8	7.05
13	COX6A1	1	-0.893	-3.32	2.95
14	COX6A1	2	-0.668	-1.73	4.34
15	COX6A1	3	-0.861	-3.09	3.86
16	CGGBP1	1	0.954	9.68	9.42
17	CGGBP1	2	-0.502	-0.565	3.67
18	CGGBP1	3	1.13	10.9	7.21
19	CAPZA2	1	-0.471	-0.348	4.6
20	CAPZA2	2	-0.767	-2.43	4.21
21	CAPZA2	3	-0.63	-1.47	3.44
22	NR2C2	1	0.579	7.04	8.05
23	NR2C2	2	-0.556	-0.946	4.22
24	NR2C2	3	3.12	24.9	12.2
25	PDCD2L	1	-0.198	1.58	2.88
26	PDCD2L	2	-1.08	-4.64	2.56
27	PDCD2L	3	0.34	5.36	5.05
28	CBLN2	1	0.0411	3.26	4.92
29	CBLN2	2	-0.242	1.26	3.3
30	CBLN2	3	-0.215	1.46	3.58
31	CLNS1A	1	-1.19	-5.43	2.22
32	CLNS1A	2	0.278	4.93	6.72
33	CLNS1A	3	1.15	11.1	9.04
34	GTF2F1	1	-0.456	-0.244	5.59
35	GTF2F1	2	0.906	9.35	8.44
36	GTF2F1	3	0.558	6.9	6.73
37	LOC401589	1	-0.684	-1.85	3.14
38	LOC401589	2	0.197	4.35	5.24
39	LOC401589	3	-0.416	0.0404	4.81
40	PNMT	1	-0.677	-1.8	3.99
41	PNMT	2	-0.227	1.37	5.45
42	PNMT	3	1.34	12.4	8.26
43	TIMP1	1	-0.0476	2.63	6.25
44	TIMP1	2	-0.476	-0.381	4.65
45	TIMP1	3	-0.637	-1.51	3.79
46	SLC6A13	1	-1.06	-4.46	4.18
47	SLC6A13	2	0.14	3.95	5.9
48	SLC6A13	3	1.44	13.1	8.3
49	MTRF1L	1	-1.09	-4.7	1.92
50	MTRF1L	2	-1.34	-6.48	1.54
51	MTRF1L	3	-0.544	-0.86	2.91
52	RHEB	1	0.434	6.02	7.05
53	RHEB	2	-1.14	-5.05	2.75
54	RHEB	3	-1.07	-4.55	2.63
55	G3BP2	1	-0.738	-2.22	4.36
56	G3BP2	2	-0.396	0.18	4.82
57	G3BP2	3	-0.737	-2.22	2.44
58	STAG3L4	1	0.913	9.39	8.67
59	STAG3L4	2	-0.627	-1.45	3.96
60	STAG3L4	3	-0.319	0.72	2.89
61	LRTM2	1	1.43	13.1	11.5
62	LRTM2	2	-0.139	1.99	5.74
63	LRTM2	3	-0.306	0.815	4.58
64	PRLHR	1	1.44	13.1	10.5
65	PRLHR	2	-0.728	-2.16	3.76
66	PRLHR	3	0.478	6.33	5.21
67	ANKRD46	1	1.99	17	8.13
68	ANKRD46	2	-0.14	1.98	4.31
69	ANKRD46	3	-0.133	2.03	3.64

Records above with an active call, once more:
gene symbol	reagent no.	G2 robust z-score	G2 cells, % of GMNN control	raw share of cells in G2 (%)
SGO1	1	5.9 (active)	44.4	18.7
SGO1	3	8.2 (active)	60.6	24.2
